# Test results published in the supplement of paper PMC10032668.
# Amino acid sequences for entries named in this document (tags omitted).
# MORF4L1, Q9UBU8, UniProt Q9UBU8, whole entry: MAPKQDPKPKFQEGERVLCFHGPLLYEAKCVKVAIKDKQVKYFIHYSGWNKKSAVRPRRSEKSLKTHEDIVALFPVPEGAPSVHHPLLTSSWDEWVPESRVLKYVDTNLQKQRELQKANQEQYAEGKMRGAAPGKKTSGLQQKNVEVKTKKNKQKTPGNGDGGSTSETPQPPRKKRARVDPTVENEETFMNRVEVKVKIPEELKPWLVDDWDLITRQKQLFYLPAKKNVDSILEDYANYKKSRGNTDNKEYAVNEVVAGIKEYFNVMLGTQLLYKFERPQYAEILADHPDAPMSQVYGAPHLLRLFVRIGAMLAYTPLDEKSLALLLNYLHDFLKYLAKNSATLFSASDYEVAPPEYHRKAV
# MORF4L2, Q15014, UniProt Q15014, whole entry: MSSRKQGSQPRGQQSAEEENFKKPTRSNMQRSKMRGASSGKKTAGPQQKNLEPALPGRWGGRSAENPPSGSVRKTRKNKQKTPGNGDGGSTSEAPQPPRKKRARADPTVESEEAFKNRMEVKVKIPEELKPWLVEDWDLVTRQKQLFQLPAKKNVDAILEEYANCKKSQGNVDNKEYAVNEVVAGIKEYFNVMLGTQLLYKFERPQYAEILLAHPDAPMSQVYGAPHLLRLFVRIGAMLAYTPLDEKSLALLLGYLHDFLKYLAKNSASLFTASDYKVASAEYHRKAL
# MPG, P29372, UniProt P29372, whole entry: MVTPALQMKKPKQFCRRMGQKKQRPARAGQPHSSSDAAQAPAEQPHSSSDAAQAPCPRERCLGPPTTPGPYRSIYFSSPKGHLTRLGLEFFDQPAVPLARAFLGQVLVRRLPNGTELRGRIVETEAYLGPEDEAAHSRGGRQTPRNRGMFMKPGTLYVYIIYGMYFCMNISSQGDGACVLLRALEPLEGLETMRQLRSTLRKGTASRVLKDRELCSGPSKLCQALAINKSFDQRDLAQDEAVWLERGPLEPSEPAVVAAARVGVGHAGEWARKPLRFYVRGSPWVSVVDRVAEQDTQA
# PIN4, Q9Y237, UniProt Q9Y237, whole entry: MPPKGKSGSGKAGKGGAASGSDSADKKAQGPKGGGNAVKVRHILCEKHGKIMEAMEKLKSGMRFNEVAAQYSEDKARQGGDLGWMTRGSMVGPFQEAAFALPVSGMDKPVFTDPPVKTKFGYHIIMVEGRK
# PLK1, P53350, UniProt P53350, whole entry: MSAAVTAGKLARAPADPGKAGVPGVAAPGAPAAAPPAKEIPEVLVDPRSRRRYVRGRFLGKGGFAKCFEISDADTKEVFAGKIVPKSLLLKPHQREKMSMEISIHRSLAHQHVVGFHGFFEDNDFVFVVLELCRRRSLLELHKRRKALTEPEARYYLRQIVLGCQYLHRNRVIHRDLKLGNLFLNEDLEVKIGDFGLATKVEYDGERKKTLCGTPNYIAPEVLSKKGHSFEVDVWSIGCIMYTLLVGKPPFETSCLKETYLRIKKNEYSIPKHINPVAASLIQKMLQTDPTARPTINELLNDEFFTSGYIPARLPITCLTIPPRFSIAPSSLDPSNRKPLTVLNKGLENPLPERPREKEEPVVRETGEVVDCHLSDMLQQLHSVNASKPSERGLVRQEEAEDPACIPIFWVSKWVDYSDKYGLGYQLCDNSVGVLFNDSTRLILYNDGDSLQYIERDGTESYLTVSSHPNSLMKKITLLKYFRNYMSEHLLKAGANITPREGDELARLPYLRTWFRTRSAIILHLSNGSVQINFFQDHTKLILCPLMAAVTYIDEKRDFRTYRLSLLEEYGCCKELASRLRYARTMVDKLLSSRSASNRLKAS
# ± gives the standard deviation of the averaged measurements. This is one part of the list. Only hits are listed; about a third recur on repeated control peptides.
# Experiments:
# Experiment in all cases: PRISMA enrichment of interactor (LFQ) in peptide spot vs all other peptide spots (log2 fold change); higher = stronger / more specific binding of the interactor to the peptide
# [1] = target: MAP7D1, Q3KQU3
# Procedure: (§1)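 PRISMA: 221 full-length sORF-encoded peptides (3-15 aa), plus SOS1/GLUT1 control peptides, were spot-synthesized on cellulose membranes in triplicate. Membranes were incubated with HEK293T lysate, and bound proteins were identified by LC-MS/MS with LFQ. Enrichment is the log2 fold change versus all other peptide spots; only significant interactors are listed (cutoff c=6, x0=2.8).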
# [2] = target: MAZ, P56270
# Procedure: as §1
# [3] = target: MORF4L1, Q9UBU8
# Procedure: as §1
# [4] = target: MORF4L2, Q15014
# Procedure: as §1
# [5] = target: MPG, P29372
# Procedure: as §1
# [6] = target: NIFK, Q9BYG3
# Procedure: as §1
# [7] = target: NME4, O00746
# Procedure: as §1
# [8] = substrate: NONO, Q15233
# Procedure: as §1
# [9] = substrate: NOSIP, Q9Y314
# Procedure: as §1
# [10] = target: NSA2, O95478
# Procedure: as §1
# [11] = target: NTHL1, P78549
# Procedure: as §1
# [12] = target: NUDT16L1, Q9BRJ7
# Procedure: as §1
# [13] = target: NUSAP1, Q9BXS6
# Procedure: as §1
# [14] = target: NXF1, Q9UBU9
# Procedure: as §1
# [15] = target: PAK4, O96013
# Procedure: as §1
# [16] = target: PIN4, Q9Y237
# Procedure: as §1
# [17] = target: PLK1, P53350
# Procedure: as §1
# [18] = target: POLRMT, O00411
# Procedure: as §1
# [19] = target: PPIL2, Q13356
# Procedure: as §1
# [20] = target: PRRC2A, P48634
# Procedure: as §1
# [21] = target: PSPC1, Q8WXF1
# Procedure: as §1
# [22] = target: PSRC1, Q6PGN9
# Procedure: as §1
# [23] = target: PUM3, Q15397
# Procedure: as §1
# [24] = target: PUSL1, Q8N0Z8
# Procedure: as §1
# [25] = target: PYCR1, P32322
# Procedure: as §1
# [26] = target: PYCR2, Q96C36
# Procedure: as §1
# [27] = target: RBM33, Q96EV2
# Procedure: as §1
# [28] = target: RBMX, P38159
# Procedure: as §1
# [29] = target: REPIN1, Q9BWE0
# Procedure: as §1
# [30] = target: RPS19BP1, Q86WX3
# Procedure: as §1
# [31] = target: RPUSD3, Q6P087
# Procedure: as §1
# [32] = target: SAFB, Q15424
# Procedure: as §1
# [33] = target: SAFB2, Q14151
# Procedure: as §1
# [34] = target: SERF2, P84101
# Procedure: as §1
# [35] = target: SFPQ, P23246
# Procedure: as §1
# [36] = target: SLTM, Q9NWH9
# Procedure: as §1
# [37] = target: SND1, Q7KZF4
# Procedure: as §1
# [38] = target: SPTY2D1, Q68D10
# Procedure: as §1
# [39] = target: TBC1D4, O60343
# Procedure: as §1
# [40] = target: TBL2, Q9Y4P3
# Procedure: as §1
# [41] = target: THYN1, Q9P016
# Procedure: as §1
# [42] = target: TMA16, Q96EY4
# Procedure: as §1
# [43] = target: UTP11, Q9Y3A2
# Procedure: as §1
# [44] = target: UTP15, Q8TED0
# Procedure: as §1
# [45] = target: ZC2HC1A, Q96GY0
# Procedure: as §1
# [46] = target: ZC3HAV1L, Q96H79
# Procedure: as §1
# [47] = target: ZNF22, P17026
# Procedure: as §1
# [48] = target: ZNF512, Q96ME7
# Procedure: as §1
# [49] = target: ZNF706, Q9Y5V0
# Procedure: as §1
# [50] = target: ZNF768, Q9H5H4
# Procedure: as §1
binder,measurement,setting,value
MAEAGDFW [INSIG2],PRISMA enrichment of interactor (log2),[1],4.6
same,PRISMA enrichment of interactor (log2),[2],6.27 ± 1.5
same,PRISMA enrichment of interactor (log2),[3],6.55
same,PRISMA enrichment of interactor (log2),[4],8.69
same,PRISMA enrichment of interactor (log2),[5],7.66
same,PRISMA enrichment of interactor (log2),[6],4.86
same,PRISMA enrichment of interactor (log2),[7],6.38
same,PRISMA enrichment of interactor (log2),[8],6.44
same,PRISMA enrichment of interactor (log2),[9],4.62
same,PRISMA enrichment of interactor (log2),[10],4.85
same,PRISMA enrichment of interactor (log2),[11],6.13
same,PRISMA enrichment of interactor (log2),[12],6.44
same,PRISMA enrichment of interactor (log2),[13],6.22
same,PRISMA enrichment of interactor (log2),[14],5.11
same,PRISMA enrichment of interactor (log2),[15],4.34
same,PRISMA enrichment of interactor (log2),[16],6.52
same,PRISMA enrichment of interactor (log2),[17],8.18
same,PRISMA enrichment of interactor (log2),[18],5.91
same,PRISMA enrichment of interactor (log2),[19],6.85
same,PRISMA enrichment of interactor (log2),[20],4.96
same,PRISMA enrichment of interactor (log2),[21],6.07
same,PRISMA enrichment of interactor (log2),[22],5.64
same,PRISMA enrichment of interactor (log2),[23],4.58
same,PRISMA enrichment of interactor (log2),[24],4.66
same,PRISMA enrichment of interactor (log2),[25],5.98
same,PRISMA enrichment of interactor (log2),[26],6.31
same,PRISMA enrichment of interactor (log2),[27],5.98
same,PRISMA enrichment of interactor (log2),[28],5.89
same,PRISMA enrichment of interactor (log2),[29],4.35
same,PRISMA enrichment of interactor (log2),[30],4.95
same,PRISMA enrichment of interactor (log2),[31],6.68
same,PRISMA enrichment of interactor (log2),[32],6.5
same,PRISMA enrichment of interactor (log2),[33],5.91
same,PRISMA enrichment of interactor (log2),[34],7
same,PRISMA enrichment of interactor (log2),[35],6.33
same,PRISMA enrichment of interactor (log2),[36],6.67
same,PRISMA enrichment of interactor (log2),[37],5.24
same,PRISMA enrichment of interactor (log2),[38],4.67
same,PRISMA enrichment of interactor (log2),[39],7.47
same,PRISMA enrichment of interactor (log2),[40],5.51
same,PRISMA enrichment of interactor (log2),[41],4.96
same,PRISMA enrichment of interactor (log2),[42],5.05
same,PRISMA enrichment of interactor (log2),[43],4.7
same,PRISMA enrichment of interactor (log2),[44],5.11
same,PRISMA enrichment of interactor (log2),[45],5.97
same,PRISMA enrichment of interactor (log2),[46],4.28
same,PRISMA enrichment of interactor (log2),[47],5.65
same,PRISMA enrichment of interactor (log2),[48],6.34
same,PRISMA enrichment of interactor (log2),[49],4.98
same,PRISMA enrichment of interactor (log2),[50],8.02

# Exported with bars between the fields: entries from further up.
binder | measurement | setting | value
MAEAGDFW [INSIG2] | PRISMA enrichment of interactor (log2) | [1] | 4.6
same | PRISMA enrichment of interactor (log2) | [2] | 6.27 ± 1.5
